No constants are given. Whether binding was seen depends on the method and setting. In cells and extracts the contact can be indirect. Some binding calls cover weakened binding; strength is not graded here. Where a sequence is shown, tags or fusion partners need not be part of it.
Molecular target: DISP-FLAG (Dispatched, SHH deployment protein, FLAG-tagged) (UniProt Q3TDN0)
Test: co-IP

By UniProt entry, the sequences of proteins in these tests, tags left out.
UniProt Q3TDN0: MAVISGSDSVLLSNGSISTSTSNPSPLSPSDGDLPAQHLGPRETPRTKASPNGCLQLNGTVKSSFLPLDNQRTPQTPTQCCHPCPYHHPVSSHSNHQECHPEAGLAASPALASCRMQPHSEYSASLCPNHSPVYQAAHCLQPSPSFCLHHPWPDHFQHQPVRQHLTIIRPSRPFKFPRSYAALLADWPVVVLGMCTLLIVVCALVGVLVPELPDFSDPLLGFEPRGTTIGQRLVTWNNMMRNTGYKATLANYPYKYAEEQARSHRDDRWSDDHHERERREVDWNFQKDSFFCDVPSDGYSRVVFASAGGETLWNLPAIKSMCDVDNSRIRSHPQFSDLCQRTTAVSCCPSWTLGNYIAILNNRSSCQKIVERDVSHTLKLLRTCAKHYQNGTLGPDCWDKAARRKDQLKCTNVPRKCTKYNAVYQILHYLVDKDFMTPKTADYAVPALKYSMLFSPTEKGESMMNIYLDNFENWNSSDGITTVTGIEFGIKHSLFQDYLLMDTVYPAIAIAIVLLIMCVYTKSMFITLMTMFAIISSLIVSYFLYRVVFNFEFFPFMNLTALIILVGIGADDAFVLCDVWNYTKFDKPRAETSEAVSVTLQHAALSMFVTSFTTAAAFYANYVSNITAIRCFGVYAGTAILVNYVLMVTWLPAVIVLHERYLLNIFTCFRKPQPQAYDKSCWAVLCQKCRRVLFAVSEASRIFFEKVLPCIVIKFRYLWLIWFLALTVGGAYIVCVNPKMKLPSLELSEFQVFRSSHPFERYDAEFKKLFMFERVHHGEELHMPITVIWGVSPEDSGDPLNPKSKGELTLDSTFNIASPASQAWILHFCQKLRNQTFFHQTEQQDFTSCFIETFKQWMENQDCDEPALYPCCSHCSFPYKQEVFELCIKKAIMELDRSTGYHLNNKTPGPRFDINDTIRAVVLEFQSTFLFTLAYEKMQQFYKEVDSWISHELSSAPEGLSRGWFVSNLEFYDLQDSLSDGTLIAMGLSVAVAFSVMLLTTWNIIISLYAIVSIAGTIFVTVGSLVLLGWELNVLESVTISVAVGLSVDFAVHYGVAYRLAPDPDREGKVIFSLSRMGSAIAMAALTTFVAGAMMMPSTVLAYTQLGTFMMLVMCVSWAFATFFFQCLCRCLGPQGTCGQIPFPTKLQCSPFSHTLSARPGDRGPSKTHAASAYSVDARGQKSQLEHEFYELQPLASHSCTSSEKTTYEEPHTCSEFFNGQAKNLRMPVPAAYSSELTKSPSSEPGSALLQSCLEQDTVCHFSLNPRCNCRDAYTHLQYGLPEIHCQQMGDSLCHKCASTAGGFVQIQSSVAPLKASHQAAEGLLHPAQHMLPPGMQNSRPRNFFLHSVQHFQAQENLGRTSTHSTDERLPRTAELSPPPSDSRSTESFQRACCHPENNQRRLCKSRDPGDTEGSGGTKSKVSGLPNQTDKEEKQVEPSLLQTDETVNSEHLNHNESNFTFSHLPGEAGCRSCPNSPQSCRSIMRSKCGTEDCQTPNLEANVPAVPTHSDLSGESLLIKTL

binding | Binder
binds | CDON-EGFP (receptor, UniProt Q4KMG0 26-1287) DLAPYFTSEPLSAVQKLGGPVVLHCSAQPVTTRISWLHNGKTLDGNLEHVKIHQGTLTILSLNSSLLGYYQCLANNSIGAIVSGPATVSVAVLGDFGSSTKHVITAEEKSAGFIGCRVPESNPKAEVRYKIRGKWLEHSTENYLILPSGNLQILNVSLEDKGSYKCAAYNPVTHQLKVEPIGRKLLVSRPSSDDVHILHPTHSQALAVLSRSPVTLECVVSGVPAPQVYWLKDGQDIAPGSNWRRLYSHLATDSVDPADSGNYSCMAGNKSGDVKYVTYMVNVLEHASISKGLQDQIVSLGATVHFTCDVHGNPAPNCTWFHNAQPIHPSARHLTAGNGLKISGVTVEDVGMYQCVADNGIGFMHSTGRLEIENDGGFKPVIITAPVSAKVADGDFVTLSCNASGLPVPVIRWYDSHGLITSHPSQVLRSKSRKSQLSRPEGLNLEPVYFVLSQAGASSLHIQAVTQEHAGKYICEAANEHGTTQAEASLMVVPFETNTKAETVTLPDAAQNDDRSKRDGSETGLLSSFPVKVHPSAVESAPEKNASGISVPDAPIILSPPQTHTPDTYNLVWRAGKDGGLPINAYFVKYRKLDDGVGMLGSWHTVRVPGSENELHLAELEPSSLYEVLMVARSAAGEGQPAMLTFRTSKEKTASSKNTQASSPPVGIPKYPVVSEAANNNFGVVLTDSSRHSGVPEAPDRPTISTASETSVYVTWIPRANGGSPITAFKVEYKRMRTSNWLVAAEDIPPSKLSVEVRSLEPGSTYKFRVIAINHYGESFRSSASRPYQVVGFPNRFSSRPITGPHIAYTEAVSDTQIMLKWTYIPSSNNNTPIQGFYIYYRPTDSDNDSDYKRDVVEGSKQWHMIGHLQPETSYDIKMQCFNEGGESEFSNVMICETKVKRVPGASEYPVKDLSTPPNSLGSGGNVGPATSPARSSDMLYLIVGCVLGVMVLILMVFIAMCLWKNRQQNTIQKYDPPGYLYQGSDMNGQMVDYTTLSGASQINGNVHGGFLTNGGLSSGYSHLHHKVPNAVNGIVNGSLNGGLYSGHSNSLTRTHVDFEHPHHLVNGGGMYTAVPQIDPLECVNCRNCRNNNRCFTKTNSTFSSSPPPVVPVVAPYPQDGLEMKPLSHVKVPVCLTSAVPDCGQLPEESVKDNVEPVPTQRTCCQDIVNDVSSDGSEDPAEFSRGQEGMINLRIPDHLQLAKSCVWEGDSCAHSETEINIVSWNALILPPVPEGCAEKTMWSPPGIPLDSPTEVLQQPRET
binds | BOC-EGFP (receptor, UniProt Q9BWV1 31-1114) DLNEVPQVTVQPASTVQKPGGTVILGCVVEPPRMNVTWRLNGKELNGSDDALGVLITHGTLVITALNNHTVGRYQCVARMPAGAVASVPATVTLANLQDFKLDVQHVIEVDEGNTAVIACHLPESHPKAQVRYSVKQEWLEASRGNYLIMPSGNLQIVNASQEDEGMYKCAAYNPVTQEVKTSGSSDRLRVRRSTAEAARIIYPPEAQTIIVTKGQSLILECVASGIPPPRVTWAKDGSSVTGYNKTRFLLSNLLIDTTSEEDSGTYRCMADNGVGQPGAAVILYNVQVFEPPEVTMELSQLVIPWGQSAKLTCEVRGNPPPSVLWLRNAVPLISSQRLRLSRRALRVLSMGPEDEGVYQCMAENEVGSAHAVVQLRTSRPSITPRLWQDAELATGTPPVSPSKLGNPEQMLRGQPALPRPPTSVGPASPQCPGEKGQGAPAEAPIILSSPRTSKTDSYELVWRPRHEGSGRAPILYYVVKHRKVTNSSDDWTISGIPANQHRLTLTRLDPGSLYEVEMAAYNCAGEGQTAMVTFRTGRRPKPEIMASKEQQIQRDDPGASPQSSSQPDHGRLSPPEAPDRPTISTASETSVYVTWIPRGNGGFPIQSFRVEYKKLKKVGDWILATSAIPPSRLSVEITGLEKGTSYKFRVRALNMLGESEPSAPSRPYVVSGYSGRVYERPVAGPYITFTDAVNETTIMLKWMYIPASNNNTPIHGFYIYYRPTDSDNDSDYKKDMVEGDKYWHSISHLQPETSYDIKMQCFNEGGESEFSNVMICETKARKSSGQPGRLPPPTLAPPQPPLPETIERPVGTGAMVARSSDLPYLIVGVVLGSIVLIIVTFIPFCLWRAWSKQKHTTDLGFPRSALPPSCPYTMVPLGGLPGHQASGQPYLSGISGRACANGIHMNRGCPSAAVGYPGMKPQQHCPGELQQQSDTSSLLRQTHLGNGYDPQSHQITRGPKSSPDEGSFLYTLPDDSTHQLLQPHHDCCQRQEQPAAVGQSGVRRAPDSPVLEAVWDPPFHSGPPCCLGLVPVEEVDSPDSCQVSGGDWCPQHPVGAYVGQEPGMQLSPGPLVRVSFETPPLTI

Source: publication doi:10.1101/2020.05.06.080820
